A short description of this data set: Remaining cyclic tetrasaccharide in contents of alimentary canal and excrement of rats. The format is in vivo, Wister rats. The note with it: depending on the amount of cyclic tetrasaccharide. The text has this:
Forty of Wister rats weighing 110 to 120 g (five-weeks aged male, commercialized by Charles River Japan Inc., Yokohama, Japan) were bred with a feed containing ingredients (%) shown in Table 1 for one week in order to be familiarized. The familiarized rats were randomly divided into four groups with ten rats each. Each group was experimentally bred for eight weeks with either a feed without cyclic tetrasaccharide shown in Table 1 (hereinafter, it is called as “basic feed”), or another feed of basic feed supplemented with 1%, 2% or 5% on a dry solid basis, of cyclic tetrasaccharide in a crystalline anhydrous powder form with a purity of 99.5%, prepared in the following Example A-3. […]
Two days before the end of the breeding test, rats were placed into a gauge for measuring metabolism to collect their excrement in two days. […] The following(s) explain the methods of quantitative analysis of cyclic tetrasaccharide and the methods of measurement of minerals and chromium.
One gram of a feed was admixed with 5 ml of 80% ethanol heated at 85° C. under reflux for 15 minutes to extract saccharides. […] The amount of cyclic tetrasaccharide was quantified by using nitrogen gas as a carrier (35 ml/min). […] The resulting samples were subjected to TMS derivatization in a usual manner and quantified by gas chromatography. […]

Take `OC[C@H]1O[C@@H]2OC[C@H]3O[C@H](O[C@@H]4[C@@H](O)[C@@H](OC[C@H]5O[C@H](O[C@H]([C@H]2O)[C@@H]1O)[C@H](O)[C@@H](O)[C@@H]5O)O[C@H](CO)[C@H]4O)[C@H](O)[C@@H](O)[C@@H]3O` [cyclic tetrasaccharide, cyclo{>6)-α-D-glucopyranosyl-(1>3)-α-D-glucopyranosyl-(1>6)-α-D-glucopyranosyl-(1>3)-α-D-glucopyranosyl-(1>}]: the “amount of organic acids including lactic acid” value is listed as “increased” and the pH result is “pH reduction was observed”.

The record behind these values is US20080113938A1, “ACCELERATOR FOR MINERAL ABSORPTION AND USE THEREOF” (KABUSHIKI KAISHA HAYASHIBARA SEIBUTSU KAGAKU KENKYUJO, priority 2003, published 2008).
